From PMC6584639
These are yes or no findings as the source states them, for the method shown. Sequences can lack the tags named with a protein.

T1: KIF1CΔS-GFP (6His-KIF1CΔ623–825-GFP) (human) (UniProt O43896)
T1 sequence: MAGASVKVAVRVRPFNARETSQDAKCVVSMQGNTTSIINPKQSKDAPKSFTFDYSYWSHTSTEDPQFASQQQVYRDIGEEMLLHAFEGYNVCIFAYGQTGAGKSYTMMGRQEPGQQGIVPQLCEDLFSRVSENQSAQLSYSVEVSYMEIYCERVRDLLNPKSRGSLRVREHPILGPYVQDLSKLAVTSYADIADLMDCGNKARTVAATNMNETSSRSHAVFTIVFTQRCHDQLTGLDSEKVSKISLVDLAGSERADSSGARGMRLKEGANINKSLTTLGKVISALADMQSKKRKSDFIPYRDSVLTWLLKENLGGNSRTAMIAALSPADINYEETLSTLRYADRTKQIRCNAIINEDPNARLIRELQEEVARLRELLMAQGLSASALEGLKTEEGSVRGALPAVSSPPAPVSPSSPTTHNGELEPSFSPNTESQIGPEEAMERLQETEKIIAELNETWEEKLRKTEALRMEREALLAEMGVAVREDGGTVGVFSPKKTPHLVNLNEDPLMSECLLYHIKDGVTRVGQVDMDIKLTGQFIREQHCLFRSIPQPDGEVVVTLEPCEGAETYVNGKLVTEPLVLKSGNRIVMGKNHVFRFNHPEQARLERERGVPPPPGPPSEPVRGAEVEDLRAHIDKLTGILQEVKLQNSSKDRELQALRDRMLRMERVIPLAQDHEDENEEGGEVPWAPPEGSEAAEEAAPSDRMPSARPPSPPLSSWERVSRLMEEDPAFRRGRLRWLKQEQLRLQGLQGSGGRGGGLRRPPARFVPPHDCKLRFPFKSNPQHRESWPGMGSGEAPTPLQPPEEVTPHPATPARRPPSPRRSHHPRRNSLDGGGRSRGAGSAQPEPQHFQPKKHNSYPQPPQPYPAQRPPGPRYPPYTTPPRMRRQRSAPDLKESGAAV


Target: T1, KIF1CΔS-GFP (6His-KIF1CΔ623–825-GFP) (human)
Test: single-molecule co-transport on microtubules (two-colour TIRF); KIF1C-GFP or KIF1CΔS-GFP incubated with Hook3-SNAPf647 or 647SNAPf-FERM, then imaged on microtubules, 25 °C; both purified

Row | Binder | binding
1 | recombinant human Hook3 with a C-terminal SNAP-tag, labelled with Alexa647 (protein, UniProt Q86VS8 1-718, SNAP-Surface Alexa Fluor 647 on the SNAPf tag (labelling ratio 1.05)) MFSVESLERAELCESLLTWIQTFNVDAPCQTVEDLTNGVVMAQVLQKIDPAYFDENWLNRIKTEVGDNWRLKISNLKKILKGILDYNHEILGQQINDFTLPDVNLIGEHSDAAELGRMLQLILGCAVNCEQKQEYIQAIMMMEESVQHVVMTAIQELMSKESPVSAGNDAYVDLDRQLKKTTEELNEALSAKEEIAQRCHELDMQVAALQEEKSSLLAENQVLMERLNQSDSIEDPNSPAGRRHLQLQTQLEQLQEETFRLEAAKDDYRIRCEELEKEISELRQQNDELTTLADEAQSLKDEIDVLRHSSDKVSKLEGQVESYKKKLEDLGDLRRQVKLLEEKNTMYMQNTVSLEEELRKANAARSQLETYKRQVVELQNRLSEESKKADKLDFEYKRLKEKVDSLQKEKDRLRTERDSLKETIEELRCVQAQEGQLTTQGLMPLGSQESSDSLAAEIVTPEIREKLIRLQHENKMLKLNQEGSDNEKIALLQSLLDDANLRKNELETENRLVNQRLLEVQSQVEELQKSLQDQGSKAEDSVLLKKKLEEHLEKLHEANNELQKKRAIIEDLEPRFNNSSLKIEELQEALRKKEEEMKQMEERYKKYLEKAKSVIRTLDPKQNQGAAPEIQALKNQLQERDRLFHSLEKEYEKTKSQREMEEKYIVSAWYNMGMTLHKKAAEDRLASTGSGQSFLARQRQATSSRRSYPGHVQPATAR | no binding
2 | SNAPf26-PTPN21(1–381)-6His labelled with Alexa647 (domain or fragment, UniProt Q16825 1-381, SNAP-Surface Alexa Fluor 647 on the SNAPf tag (labelling ratio 0.4)) MPLPFGLKLKRTRRYTVSSKSCLVARIQLLNNEFVEFTLSVESTGQESLEAVAQRLELREVTYFSLWYYNKQNQRRWVDLEKPLKKQLDKYALEPTVYFGVVFYVPSVSQLQQEITRYQYYLQLKKDILEGSIPCTLEQAIQLAGLAVQADFGDFDQYESQDFLQKFALFPVGWLQDEKVLEEATQKVALLHQKYRGLTAPDAEMLYMQEVERMDGYGEESYPAKDSQGSDISIGACLEGIFVKHKNGRHPVVFRWHDIANMSHNKSFFALELANKEETIQFQTEDMETAKYIWRLCVARHKFYRLNQCNLQTQTVTVNPIRRRSSSRMSLPKPQPYVMPPPPQLHYNGHYTEPYASSQDNLFVPNQNGYYCHSQTSLDRA | no binding
